Experimental data published in patent publication US10206988B2 (The University of Toledo, priority 2012, dated 2019).

Assay: general procedure: Fmoc solid-phase peptide synthesis; preloaded Fmoc-L-Ala-Wang resin; preloaded Fmoc-L-Val Wang resin; DIC/HOBt
Conditions: lipidation step

**Q.** With Pam3Cys-MUC1 VNTR-TACA conjugate as the substance, how does the step yield read?
**A.** Its step yield is 100%.

**Q.** With Pam3Cys-MUC1-Tn as the substance, how does the step yield read?
**A.** Its step yield is 100%.
